Assay results taken from the supplement of paper PMC7666118.
This is one part of the list.

By UniProt entry, the sequences of proteins in these tests, tags left out. Where a name states a change or a piece, a line headed by the entry shows the natural chain unless it says otherwise.
UniProt Q13217: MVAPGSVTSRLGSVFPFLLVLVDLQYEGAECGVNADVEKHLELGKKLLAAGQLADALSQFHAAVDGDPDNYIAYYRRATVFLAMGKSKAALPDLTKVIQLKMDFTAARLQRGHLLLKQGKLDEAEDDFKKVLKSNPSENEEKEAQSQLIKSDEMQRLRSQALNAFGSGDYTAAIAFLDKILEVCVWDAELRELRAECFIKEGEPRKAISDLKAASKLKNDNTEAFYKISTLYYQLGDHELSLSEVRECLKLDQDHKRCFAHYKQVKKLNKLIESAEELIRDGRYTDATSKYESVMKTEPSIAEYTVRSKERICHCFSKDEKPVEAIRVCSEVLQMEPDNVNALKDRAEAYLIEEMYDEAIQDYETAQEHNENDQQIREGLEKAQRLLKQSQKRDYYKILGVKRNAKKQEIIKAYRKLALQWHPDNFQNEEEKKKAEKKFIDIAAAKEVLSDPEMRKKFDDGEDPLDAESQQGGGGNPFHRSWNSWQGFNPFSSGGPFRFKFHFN
UniProt P07339: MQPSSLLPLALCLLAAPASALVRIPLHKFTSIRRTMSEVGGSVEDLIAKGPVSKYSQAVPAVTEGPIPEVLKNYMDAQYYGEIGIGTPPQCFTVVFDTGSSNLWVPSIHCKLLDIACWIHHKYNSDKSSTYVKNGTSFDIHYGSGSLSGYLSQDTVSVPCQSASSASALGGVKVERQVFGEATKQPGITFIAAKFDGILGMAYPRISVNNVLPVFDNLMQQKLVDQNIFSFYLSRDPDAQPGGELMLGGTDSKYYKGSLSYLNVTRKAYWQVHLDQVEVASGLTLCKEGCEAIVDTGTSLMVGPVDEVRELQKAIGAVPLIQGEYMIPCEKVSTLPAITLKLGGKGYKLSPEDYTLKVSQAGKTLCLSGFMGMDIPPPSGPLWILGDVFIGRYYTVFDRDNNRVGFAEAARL
UniProt Q96QD5: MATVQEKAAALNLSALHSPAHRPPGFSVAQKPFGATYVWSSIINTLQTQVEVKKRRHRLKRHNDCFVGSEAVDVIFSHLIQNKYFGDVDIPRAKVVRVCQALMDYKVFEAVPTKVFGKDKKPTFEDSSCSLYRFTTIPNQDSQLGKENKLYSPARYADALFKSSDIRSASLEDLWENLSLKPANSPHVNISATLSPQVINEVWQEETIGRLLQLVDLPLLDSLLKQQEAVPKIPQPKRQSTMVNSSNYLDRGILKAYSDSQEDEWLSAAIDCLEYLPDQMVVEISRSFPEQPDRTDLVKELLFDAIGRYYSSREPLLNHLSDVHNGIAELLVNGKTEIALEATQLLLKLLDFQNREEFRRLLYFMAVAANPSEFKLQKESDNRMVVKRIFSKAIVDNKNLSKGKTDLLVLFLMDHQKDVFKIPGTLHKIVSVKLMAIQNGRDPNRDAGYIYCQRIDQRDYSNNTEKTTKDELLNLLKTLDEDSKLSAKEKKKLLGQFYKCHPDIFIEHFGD
UniProt O60231: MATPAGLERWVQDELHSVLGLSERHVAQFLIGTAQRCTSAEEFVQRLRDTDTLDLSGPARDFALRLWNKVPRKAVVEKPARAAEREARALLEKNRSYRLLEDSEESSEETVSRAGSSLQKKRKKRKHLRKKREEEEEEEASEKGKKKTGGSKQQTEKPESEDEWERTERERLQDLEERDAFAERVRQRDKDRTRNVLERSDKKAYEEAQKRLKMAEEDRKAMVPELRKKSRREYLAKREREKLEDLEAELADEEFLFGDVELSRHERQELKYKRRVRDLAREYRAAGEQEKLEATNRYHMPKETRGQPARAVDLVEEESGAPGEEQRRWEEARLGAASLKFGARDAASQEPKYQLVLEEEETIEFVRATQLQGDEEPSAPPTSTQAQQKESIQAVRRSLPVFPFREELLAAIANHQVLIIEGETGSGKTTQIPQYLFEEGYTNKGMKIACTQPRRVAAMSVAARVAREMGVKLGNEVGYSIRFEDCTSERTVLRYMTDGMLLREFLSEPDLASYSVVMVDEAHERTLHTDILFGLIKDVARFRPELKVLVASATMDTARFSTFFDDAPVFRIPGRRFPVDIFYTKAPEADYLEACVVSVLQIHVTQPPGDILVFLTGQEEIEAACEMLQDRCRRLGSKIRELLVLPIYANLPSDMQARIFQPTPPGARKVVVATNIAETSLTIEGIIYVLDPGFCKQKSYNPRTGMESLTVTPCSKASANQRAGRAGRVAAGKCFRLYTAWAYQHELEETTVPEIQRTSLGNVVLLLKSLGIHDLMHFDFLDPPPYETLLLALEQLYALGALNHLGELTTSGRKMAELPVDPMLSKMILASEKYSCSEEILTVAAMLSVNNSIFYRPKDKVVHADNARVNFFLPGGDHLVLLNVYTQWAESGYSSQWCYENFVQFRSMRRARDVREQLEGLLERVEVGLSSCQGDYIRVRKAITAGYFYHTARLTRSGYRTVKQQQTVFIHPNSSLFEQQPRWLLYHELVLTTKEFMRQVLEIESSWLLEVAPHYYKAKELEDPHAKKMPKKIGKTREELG
UniProt O95865: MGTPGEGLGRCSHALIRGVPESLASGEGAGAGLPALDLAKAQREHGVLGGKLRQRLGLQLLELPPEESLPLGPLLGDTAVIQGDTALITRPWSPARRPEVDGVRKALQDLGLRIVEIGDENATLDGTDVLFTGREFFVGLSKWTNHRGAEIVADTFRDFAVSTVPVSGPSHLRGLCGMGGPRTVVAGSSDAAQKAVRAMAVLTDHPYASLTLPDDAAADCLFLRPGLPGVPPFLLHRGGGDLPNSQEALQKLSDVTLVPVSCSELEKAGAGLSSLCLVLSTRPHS
UniProt Q6UX07: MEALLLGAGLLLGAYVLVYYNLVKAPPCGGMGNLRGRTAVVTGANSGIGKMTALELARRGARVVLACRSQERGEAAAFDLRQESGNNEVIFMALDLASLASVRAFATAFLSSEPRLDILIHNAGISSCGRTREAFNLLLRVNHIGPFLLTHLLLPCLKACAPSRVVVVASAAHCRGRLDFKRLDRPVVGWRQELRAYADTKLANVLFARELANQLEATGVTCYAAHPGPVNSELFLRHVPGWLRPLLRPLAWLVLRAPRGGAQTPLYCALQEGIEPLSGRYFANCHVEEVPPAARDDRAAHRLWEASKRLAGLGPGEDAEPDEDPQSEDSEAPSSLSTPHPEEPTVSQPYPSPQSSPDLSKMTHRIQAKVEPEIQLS
UniProt Q86XP3: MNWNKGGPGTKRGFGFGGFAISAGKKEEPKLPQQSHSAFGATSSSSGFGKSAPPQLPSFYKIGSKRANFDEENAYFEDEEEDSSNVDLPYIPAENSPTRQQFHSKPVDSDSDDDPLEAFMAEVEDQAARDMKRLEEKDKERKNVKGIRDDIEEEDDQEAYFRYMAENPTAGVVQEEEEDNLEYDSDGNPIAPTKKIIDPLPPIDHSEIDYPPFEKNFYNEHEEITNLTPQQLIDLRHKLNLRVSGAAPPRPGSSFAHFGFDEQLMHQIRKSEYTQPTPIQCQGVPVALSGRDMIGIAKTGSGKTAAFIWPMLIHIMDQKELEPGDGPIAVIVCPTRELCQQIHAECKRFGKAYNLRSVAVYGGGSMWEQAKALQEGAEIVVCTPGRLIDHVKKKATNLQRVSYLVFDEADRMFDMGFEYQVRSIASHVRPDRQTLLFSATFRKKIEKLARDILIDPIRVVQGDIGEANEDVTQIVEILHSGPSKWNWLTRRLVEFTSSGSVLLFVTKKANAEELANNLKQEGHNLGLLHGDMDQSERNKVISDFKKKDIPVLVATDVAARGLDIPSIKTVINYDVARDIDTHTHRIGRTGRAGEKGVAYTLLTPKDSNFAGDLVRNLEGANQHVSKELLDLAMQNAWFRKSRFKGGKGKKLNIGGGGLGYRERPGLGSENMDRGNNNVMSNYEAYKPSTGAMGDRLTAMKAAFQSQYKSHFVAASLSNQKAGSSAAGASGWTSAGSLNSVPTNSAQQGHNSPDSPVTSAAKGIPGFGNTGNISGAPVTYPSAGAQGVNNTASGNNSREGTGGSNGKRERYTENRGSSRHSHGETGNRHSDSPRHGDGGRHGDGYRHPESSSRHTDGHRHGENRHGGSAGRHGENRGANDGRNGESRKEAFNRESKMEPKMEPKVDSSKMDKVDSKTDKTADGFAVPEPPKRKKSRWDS
UniProt Q8NBI2: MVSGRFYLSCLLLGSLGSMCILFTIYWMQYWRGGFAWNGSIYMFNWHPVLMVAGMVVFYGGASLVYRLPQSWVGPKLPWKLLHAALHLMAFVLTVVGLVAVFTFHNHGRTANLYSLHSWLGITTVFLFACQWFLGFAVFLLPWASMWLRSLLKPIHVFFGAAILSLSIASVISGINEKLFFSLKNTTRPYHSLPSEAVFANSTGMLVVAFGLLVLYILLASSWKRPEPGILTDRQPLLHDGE

What follows are targets tested with COc1ccc(Cn2ccc3cc(C)c(C(=O)NO)cc32)cc1 (assay: dose-dependent thermal stabilisation call (2D-TPP, DLPTP, 10% FDR) (binary (1 = stabilised)); higher = stabilised by the compound). Conditions: system: HL-60 intact cells; concentration range 0.04-10 µM.
Protocol: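 2D thermal proteome profiling in intact HL-60 cells treated with BRD-3811 (0, 0.04, 0.29, 2, 10 uM) for 90 min at 37 C, then heated 3 min at one of 12 temperatures (42-63.9 C). Soluble protein was quantified by TMT10 MS. The value is the DLPTP call of the paper: dose-dependent thermal stabilisation over all temperatures at 10% FDR (F-test of a dose-response against a flat model); one experiment, one call per tested protein.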
For DNAJC3 (UniProt Q13217), the “dose-dependent thermal stabilisation call” value was inactive: 0. With CTSD (UniProt P07339) the “dose-dependent thermal stabilisation call” value was inactive: 0. With DEPDC7 (UniProt Q96QD5) the “dose-dependent thermal stabilisation call” value was inactive: 0. In the case of CXORF56 (UniProt Q9H5V9), the “dose-dependent thermal stabilisation call” value is reported as inactive: 0. In the case of DHX16 (UniProt O60231), the “dose-dependent thermal stabilisation call” value is reported as inactive: 0. DDAH2 (UniProt O95865) was tested, and the “dose-dependent thermal stabilisation call” value was inactive: 0. In the case of DHRS13 (UniProt Q6UX07), the “dose-dependent thermal stabilisation call” value is reported as inactive: 0. In the case of DDX42 (UniProt Q86XP3), the “dose-dependent thermal stabilisation call” value is reported as inactive: 0. In the case of CYBASC3 (UniProt Q8NBI2), the “dose-dependent thermal stabilisation call” value is reported as inactive: 0.
